Experimental data published in the supplement of paper PMC7666118.
The list shows a part of the results.

Sequences of proteins named here, by UniProt entry; tags and fusion partners are left off. A change or cut given only in a name is not applied to a line headed by its entry.
UniProt O75822, whole entry: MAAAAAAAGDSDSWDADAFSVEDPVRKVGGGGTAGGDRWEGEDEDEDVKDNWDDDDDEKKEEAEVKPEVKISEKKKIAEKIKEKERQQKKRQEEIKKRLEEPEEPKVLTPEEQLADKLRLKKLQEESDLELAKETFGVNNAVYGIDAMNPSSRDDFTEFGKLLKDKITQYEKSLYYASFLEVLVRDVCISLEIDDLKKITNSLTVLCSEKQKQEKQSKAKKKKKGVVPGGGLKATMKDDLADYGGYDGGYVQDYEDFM
UniProt Q96KQ7: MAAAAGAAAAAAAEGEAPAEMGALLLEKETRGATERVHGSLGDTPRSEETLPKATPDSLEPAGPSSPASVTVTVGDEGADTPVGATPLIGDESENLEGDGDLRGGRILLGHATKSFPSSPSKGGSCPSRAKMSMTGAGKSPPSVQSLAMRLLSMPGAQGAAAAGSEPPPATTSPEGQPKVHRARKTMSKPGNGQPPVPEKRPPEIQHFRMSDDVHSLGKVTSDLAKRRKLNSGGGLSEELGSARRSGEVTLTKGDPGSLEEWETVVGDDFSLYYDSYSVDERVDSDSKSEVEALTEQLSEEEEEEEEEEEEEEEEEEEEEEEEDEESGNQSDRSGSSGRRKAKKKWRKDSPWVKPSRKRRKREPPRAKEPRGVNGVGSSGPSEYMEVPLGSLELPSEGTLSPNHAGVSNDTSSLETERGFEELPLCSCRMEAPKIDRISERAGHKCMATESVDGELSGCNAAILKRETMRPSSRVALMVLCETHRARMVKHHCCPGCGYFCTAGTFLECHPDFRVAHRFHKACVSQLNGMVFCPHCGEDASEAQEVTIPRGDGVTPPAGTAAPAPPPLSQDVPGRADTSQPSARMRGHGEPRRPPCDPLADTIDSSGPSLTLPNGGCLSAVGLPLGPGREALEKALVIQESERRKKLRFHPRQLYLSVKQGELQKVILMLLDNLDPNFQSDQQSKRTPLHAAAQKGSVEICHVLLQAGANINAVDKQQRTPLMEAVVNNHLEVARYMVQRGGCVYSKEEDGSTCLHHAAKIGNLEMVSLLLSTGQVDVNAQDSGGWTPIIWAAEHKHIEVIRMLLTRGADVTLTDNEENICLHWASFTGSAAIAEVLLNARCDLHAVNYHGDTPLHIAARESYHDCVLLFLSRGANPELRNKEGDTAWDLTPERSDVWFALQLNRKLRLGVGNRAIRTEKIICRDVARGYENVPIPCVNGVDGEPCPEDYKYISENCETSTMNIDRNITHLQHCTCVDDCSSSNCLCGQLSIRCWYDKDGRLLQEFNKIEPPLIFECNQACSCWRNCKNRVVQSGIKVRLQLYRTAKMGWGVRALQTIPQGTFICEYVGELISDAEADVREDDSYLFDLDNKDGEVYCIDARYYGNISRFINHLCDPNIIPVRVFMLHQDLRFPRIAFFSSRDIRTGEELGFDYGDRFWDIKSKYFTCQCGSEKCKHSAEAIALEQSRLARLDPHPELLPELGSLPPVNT
UniProt Q96HE7: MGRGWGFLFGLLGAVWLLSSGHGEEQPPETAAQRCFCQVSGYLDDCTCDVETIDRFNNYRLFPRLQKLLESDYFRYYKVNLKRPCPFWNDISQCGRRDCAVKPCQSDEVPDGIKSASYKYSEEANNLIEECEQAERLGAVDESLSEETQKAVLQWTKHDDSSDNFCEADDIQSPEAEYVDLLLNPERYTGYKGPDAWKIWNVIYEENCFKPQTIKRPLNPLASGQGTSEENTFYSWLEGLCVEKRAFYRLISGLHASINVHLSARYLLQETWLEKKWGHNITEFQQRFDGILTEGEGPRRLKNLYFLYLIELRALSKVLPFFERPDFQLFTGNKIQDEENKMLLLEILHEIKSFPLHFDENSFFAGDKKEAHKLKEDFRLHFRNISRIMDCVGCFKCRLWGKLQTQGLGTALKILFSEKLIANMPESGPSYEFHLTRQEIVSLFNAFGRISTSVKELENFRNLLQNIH
UniProt P38919, whole entry: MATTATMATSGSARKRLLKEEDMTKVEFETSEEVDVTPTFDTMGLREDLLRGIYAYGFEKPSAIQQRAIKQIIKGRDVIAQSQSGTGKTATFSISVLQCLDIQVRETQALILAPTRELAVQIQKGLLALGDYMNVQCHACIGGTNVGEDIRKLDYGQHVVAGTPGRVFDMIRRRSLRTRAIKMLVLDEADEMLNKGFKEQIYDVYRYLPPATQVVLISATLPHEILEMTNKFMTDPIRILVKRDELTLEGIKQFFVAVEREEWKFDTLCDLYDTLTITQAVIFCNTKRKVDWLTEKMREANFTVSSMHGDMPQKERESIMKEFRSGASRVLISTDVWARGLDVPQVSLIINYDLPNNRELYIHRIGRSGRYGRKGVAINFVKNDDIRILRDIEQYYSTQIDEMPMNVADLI
UniProt Q96JJ3: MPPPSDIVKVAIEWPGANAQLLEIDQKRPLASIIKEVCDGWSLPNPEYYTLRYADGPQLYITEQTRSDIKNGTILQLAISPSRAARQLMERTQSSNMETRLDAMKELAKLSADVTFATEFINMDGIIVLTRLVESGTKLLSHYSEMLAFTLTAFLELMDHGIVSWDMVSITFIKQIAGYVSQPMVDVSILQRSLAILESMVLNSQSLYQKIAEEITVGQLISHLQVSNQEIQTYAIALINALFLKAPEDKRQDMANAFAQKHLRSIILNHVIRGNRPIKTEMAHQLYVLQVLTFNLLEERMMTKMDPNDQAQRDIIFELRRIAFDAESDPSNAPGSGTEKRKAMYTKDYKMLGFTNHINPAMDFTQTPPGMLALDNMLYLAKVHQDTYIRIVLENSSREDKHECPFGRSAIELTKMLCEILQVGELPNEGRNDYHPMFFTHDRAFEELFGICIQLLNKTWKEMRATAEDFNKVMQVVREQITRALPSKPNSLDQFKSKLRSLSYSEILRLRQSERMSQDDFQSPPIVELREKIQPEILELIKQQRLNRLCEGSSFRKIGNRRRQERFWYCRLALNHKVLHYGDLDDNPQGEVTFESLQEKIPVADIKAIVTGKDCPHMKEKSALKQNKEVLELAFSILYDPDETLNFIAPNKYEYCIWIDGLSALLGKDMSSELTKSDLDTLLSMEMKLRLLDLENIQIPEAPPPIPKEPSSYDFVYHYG
UniProt O75063: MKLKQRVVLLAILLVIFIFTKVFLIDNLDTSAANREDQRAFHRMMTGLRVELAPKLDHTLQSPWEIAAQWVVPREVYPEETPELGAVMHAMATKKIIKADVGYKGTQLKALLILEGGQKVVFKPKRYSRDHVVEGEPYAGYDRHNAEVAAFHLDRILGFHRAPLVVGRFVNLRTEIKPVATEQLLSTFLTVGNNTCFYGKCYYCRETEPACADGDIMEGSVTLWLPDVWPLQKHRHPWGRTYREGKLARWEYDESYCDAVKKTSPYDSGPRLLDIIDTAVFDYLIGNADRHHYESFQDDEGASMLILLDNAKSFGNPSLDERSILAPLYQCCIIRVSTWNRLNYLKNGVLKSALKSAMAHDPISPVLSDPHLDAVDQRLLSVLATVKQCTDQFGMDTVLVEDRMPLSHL
UniProt O75477: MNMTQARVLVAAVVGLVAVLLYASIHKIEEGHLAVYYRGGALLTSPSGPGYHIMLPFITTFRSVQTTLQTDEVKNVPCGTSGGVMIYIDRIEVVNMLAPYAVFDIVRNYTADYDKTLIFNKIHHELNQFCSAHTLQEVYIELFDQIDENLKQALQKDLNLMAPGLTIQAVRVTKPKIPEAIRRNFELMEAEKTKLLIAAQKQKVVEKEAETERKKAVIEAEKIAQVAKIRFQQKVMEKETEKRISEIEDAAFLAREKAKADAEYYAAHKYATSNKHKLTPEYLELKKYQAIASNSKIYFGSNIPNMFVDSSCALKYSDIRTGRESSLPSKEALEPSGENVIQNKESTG
UniProt Q9NPA8: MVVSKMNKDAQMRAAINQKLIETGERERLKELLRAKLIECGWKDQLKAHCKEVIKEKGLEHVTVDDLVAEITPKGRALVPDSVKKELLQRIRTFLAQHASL
UniProt Q9H8V3: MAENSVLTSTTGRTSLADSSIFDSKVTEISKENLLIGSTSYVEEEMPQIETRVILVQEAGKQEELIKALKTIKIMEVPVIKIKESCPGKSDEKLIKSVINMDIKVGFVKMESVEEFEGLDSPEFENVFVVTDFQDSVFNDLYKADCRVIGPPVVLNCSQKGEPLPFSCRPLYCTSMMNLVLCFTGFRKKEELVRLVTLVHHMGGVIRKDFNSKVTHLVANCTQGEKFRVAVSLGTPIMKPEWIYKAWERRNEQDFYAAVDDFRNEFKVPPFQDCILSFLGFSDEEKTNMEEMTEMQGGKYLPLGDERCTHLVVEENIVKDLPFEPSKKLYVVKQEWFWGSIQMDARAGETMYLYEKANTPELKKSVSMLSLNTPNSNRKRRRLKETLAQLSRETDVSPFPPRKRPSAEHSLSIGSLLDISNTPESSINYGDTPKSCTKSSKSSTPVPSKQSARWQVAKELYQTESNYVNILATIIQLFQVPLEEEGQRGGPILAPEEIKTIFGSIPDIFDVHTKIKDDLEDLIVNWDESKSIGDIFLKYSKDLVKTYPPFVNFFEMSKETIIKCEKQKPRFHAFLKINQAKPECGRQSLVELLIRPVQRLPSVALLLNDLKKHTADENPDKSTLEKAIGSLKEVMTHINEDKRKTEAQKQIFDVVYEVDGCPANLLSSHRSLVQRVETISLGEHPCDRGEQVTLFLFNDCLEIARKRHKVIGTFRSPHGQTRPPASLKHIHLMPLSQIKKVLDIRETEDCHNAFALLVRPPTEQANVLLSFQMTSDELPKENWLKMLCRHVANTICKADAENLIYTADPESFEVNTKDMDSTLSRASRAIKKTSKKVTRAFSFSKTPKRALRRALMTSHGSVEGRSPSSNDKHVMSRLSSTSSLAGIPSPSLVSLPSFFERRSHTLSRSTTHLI
UniProt Q6P587: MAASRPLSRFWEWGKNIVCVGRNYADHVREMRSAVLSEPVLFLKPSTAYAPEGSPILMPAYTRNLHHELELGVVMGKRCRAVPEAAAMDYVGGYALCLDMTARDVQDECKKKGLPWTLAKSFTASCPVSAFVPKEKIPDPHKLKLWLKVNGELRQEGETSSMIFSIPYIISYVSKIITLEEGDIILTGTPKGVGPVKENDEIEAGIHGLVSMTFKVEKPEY
UniProt Q01844: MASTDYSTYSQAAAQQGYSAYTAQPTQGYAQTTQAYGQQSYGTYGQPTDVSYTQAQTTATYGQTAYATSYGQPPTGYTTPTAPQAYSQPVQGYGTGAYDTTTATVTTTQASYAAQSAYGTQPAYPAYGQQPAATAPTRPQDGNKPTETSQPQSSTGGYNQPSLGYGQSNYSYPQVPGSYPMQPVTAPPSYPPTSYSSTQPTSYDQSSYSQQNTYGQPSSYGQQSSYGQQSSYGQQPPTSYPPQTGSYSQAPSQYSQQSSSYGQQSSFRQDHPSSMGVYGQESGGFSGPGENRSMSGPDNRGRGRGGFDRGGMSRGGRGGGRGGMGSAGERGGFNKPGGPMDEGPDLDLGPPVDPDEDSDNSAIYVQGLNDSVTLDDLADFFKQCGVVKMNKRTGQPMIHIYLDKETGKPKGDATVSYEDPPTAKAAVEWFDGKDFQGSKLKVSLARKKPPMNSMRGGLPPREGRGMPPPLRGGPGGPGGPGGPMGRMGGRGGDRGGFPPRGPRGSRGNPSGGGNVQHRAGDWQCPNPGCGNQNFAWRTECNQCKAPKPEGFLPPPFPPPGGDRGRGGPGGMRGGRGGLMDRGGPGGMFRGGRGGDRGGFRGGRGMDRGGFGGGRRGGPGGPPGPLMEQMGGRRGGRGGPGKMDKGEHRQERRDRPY
UniProt P55039: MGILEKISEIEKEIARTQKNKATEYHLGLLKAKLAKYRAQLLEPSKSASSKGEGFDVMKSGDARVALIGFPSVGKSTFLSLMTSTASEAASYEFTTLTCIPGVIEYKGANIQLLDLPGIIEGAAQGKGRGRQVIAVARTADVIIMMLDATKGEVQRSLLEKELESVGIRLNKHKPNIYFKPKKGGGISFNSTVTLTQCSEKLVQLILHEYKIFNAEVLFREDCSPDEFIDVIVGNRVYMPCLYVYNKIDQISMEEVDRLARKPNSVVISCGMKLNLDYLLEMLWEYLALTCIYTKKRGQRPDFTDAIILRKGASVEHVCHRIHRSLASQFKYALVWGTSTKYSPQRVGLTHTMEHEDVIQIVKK
UniProt Q14249: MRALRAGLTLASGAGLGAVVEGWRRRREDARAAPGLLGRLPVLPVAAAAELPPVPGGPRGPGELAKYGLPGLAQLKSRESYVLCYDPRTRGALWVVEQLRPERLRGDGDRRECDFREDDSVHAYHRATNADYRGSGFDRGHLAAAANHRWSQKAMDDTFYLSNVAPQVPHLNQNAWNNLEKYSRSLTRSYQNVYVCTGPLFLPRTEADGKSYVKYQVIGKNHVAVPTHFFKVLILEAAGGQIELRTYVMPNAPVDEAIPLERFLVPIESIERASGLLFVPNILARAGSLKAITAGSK

Compound: COc1ccc(Cn2ccc3cc(C)c(C(=O)NO)cc32)cc1
Test: dose-dependent thermal stabilisation call (2D-TPP, DLPTP, 10% FDR) (binary (1 = stabilised)); higher = stabilised by the compound
Conditions: system: HL-60 intact cells; concentration range 0.04-10 µM
Description: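 2D thermal proteome profiling in intact HL-60 cells treated with BRD-3811 (0, 0.04, 0.29, 2, 10 uM) for 90 min at 37 C, then heated 3 min at one of 12 temperatures (42-63.9 C). Soluble protein was quantified by TMT10 MS. The value is the DLPTP call of the paper: dose-dependent thermal stabilisation over all temperatures at 10% FDR (F-test of a dose-response against a flat model); one experiment, one call per tested protein.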

Target	dose-dependent thermal stabilisation call
EIF3J (UniProt O75822)	inactive: 0
EHMT2 (UniProt Q96KQ7)	inactive: 0
ERO1L (UniProt Q96HE7)	inactive: 0
EIF4A3 (UniProt P38919)	inactive: 0
DTWD1 (UniProt Q8N5C7)	inactive: 0
FAM105B (UniProt Q96BN8)	inactive: 0
EED (UniProt O75530)	inactive: 0
ELMO2 (UniProt Q96JJ3)	inactive: 0
FAM20B (UniProt O75063)	inactive: 0
FAM44A (UniProt Q8NFC6)	inactive: 0
EVI2B (UniProt P34910)	inactive: 0
EIF4G3 (UniProt O43432)	inactive: 0
ERLIN1 (UniProt O75477)	inactive: 0
ESF1 (UniProt Q9H501)	inactive: 0
F13A1 (UniProt P00488)	inactive: 0
ENY2 (UniProt Q9NPA8)	inactive: 0
ECT2 (UniProt Q9H8V3)	inactive: 0
EPX (UniProt P11678)	inactive: 0
FAHD1 (UniProt Q6P587)	inactive: 0
DSC1 (UniProt Q08554)	inactive: 0
ELAC2 (UniProt Q9BQ52)	inactive: 0
ERBB2IP (UniProt Q96RT1)	inactive: 0
EWSR1 (UniProt Q01844)	inactive: 0
DRG2 (UniProt P55039)	inactive: 0
ESRRA (UniProt P11474)	inactive: 0
ENDOG (UniProt Q14249)	inactive: 0
FAM175B (UniProt Q15018)	inactive: 0

Looked up above.
Value of ESF1 (UniProt Q9H501) under dose-dependent thermal stabilisation call: inactive: 0
Value of FAM175B (UniProt Q15018) under dose-dependent thermal stabilisation call: inactive: 0
